Positions count from the first letter of the chain named. No constants are given. Whether binding was seen depends on the method and setting. In cells and extracts the contact can be indirect. Some results given as binding are weak or reduced against the parent protein; the word gives no strength.
Legend:
Assay in all cases: co-IP
[1] = molecular target: T1, ClC-5 I524K, overexpressed in HEK293T cells (human) (UniProt P51795)
T1 sequence: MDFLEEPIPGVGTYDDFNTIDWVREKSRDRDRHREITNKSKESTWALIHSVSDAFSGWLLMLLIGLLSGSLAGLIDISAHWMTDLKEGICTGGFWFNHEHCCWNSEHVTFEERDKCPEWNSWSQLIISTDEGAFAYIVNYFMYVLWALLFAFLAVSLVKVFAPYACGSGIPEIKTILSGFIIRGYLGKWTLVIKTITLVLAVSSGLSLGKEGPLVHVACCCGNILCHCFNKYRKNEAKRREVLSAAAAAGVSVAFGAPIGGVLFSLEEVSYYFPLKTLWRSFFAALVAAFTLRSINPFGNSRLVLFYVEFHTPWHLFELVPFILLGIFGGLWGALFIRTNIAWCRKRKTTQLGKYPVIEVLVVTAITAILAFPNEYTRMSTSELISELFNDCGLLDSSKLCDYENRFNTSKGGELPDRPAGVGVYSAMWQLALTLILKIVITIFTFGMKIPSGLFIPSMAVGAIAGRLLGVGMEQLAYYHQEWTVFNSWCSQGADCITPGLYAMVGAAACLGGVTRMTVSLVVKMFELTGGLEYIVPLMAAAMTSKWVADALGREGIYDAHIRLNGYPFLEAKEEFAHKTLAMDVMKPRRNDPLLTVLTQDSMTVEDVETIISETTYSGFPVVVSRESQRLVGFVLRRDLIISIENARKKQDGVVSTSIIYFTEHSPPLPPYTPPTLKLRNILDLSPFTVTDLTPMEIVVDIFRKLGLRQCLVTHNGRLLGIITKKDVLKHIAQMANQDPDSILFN

The chains behind the UniProt entries cited, without tags or fusion partners. Residues count along the entry.
UniProt O75396: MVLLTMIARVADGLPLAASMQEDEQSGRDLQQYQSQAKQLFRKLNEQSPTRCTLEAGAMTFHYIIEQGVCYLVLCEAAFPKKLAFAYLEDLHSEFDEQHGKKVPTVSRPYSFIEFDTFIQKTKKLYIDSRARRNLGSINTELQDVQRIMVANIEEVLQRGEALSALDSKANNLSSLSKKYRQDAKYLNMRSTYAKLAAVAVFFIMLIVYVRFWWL
UniProt Q9P0T7, residues 21-183: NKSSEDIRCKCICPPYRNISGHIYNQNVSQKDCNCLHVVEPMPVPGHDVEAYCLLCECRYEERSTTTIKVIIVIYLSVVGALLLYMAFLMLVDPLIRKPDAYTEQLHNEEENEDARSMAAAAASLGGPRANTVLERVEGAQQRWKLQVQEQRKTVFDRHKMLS

[2] = molecular target: T2, ClC-5 WT, overexpressed in HEK293T cells (human) (UniProt P51795)
T2 sequence: T1 sequence with K524I

[3] = molecular target: T3, ClC-5 V523Δ, overexpressed in HEK293T cells (human) (UniProt P51795)
T3 sequence: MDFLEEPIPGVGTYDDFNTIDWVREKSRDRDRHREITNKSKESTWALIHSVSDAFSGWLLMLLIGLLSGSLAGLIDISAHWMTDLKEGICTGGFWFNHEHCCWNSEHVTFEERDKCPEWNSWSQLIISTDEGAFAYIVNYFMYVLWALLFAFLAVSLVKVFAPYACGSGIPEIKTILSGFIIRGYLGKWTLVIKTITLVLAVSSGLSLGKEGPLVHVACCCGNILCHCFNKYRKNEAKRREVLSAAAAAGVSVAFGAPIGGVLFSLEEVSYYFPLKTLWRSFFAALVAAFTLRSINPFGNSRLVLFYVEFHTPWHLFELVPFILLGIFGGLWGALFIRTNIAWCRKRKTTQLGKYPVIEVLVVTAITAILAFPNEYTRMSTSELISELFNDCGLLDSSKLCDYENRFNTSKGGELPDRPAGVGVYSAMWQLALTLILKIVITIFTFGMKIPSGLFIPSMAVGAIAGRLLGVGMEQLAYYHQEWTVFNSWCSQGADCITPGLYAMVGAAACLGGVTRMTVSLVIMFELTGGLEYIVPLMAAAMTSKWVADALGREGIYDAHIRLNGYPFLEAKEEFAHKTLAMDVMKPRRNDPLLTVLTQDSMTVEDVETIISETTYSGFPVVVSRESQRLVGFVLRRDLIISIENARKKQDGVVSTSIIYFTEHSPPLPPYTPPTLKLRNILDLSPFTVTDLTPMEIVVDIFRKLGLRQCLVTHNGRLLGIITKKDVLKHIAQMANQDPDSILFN

[4] = molecular target: T4, ClC-5 E527D, overexpressed in HEK293T cells (human) (UniProt P51795)
T4 sequence: T1 sequence with K524I, E527D

Row | binding [1] | binding [2] | binding [3] | binding [4] | Substance
1 | no binding | binds | no binding | no binding | SEC22B, overexpressed in HEK293T cells (from UniProt O75396 1-215)
2 | binds | binds | binds | binds | TMEM9, overexpressed in HEK293T cells (from UniProt Q9P0T7 21-183)

Reference: doi:10.1101/2025.11.03.686312
